Measurements taken from PubChem BioAssay AID493014 (National Center for Advancing Translational Sciences (NCATS), 2011).
The list shows a part of the results. Further columns of the screen follow, without active or inactive calls. Most of these compounds were active or inconclusive in the main read-out, so they are no random draw. The note in brackets gives the kind of curve behind each potency; many fits are weak.

Test: qHTS Assay to Find Inhibitors of Chronic Active B-Cell Receptor Signaling
Conditions: ABC-DLBCL IkBa-CBG/CBR reporter, luminescence ratio (green luciferase fused to IkBa over red control in TMD8 lymphoma cells), 4 h
Summary of the method: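 Concentration-response series (up to 46 uM) were applied to TMD8 dual-reporter cells for 4 h at 37C with doxycycline. Green/red ratio, after filter-overlap correction, defined %Activity; red signal alone was normalised to basal cells and zero luminescence.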

[1] = measured here: CBR red luminescence, cell number
[2] = measured here: IkBa-CBG green luminescence

| Compound | AC50 [1] | AC50 [2] |
| --- | --- | --- |
| CCN(c1ccccc1)S(=O)(=O)c1ccc(Cl)c(NC(=O)COC(=O)c2cc(O)c3ccccc3c2O)c1 | 35.5 µM [falling, single point] | – |
| O=S1(=O)C[C@@H](O)[C@@H](Nc2ccc(Cl)cc2)C1 | 8.2 µM [rising, partial curve, poor fit] | – |
| O=S(=O)(c1ccc(-c2csc(Nc3ccc(F)cc3)n2)cc1)N1CCCC1 | 2.31 µM [rising, full curve, poor fit] | – |
| COc1cc(C2C(C#N)=C(N)OC3=C2C(=O)CCC3)cc2c1OCO2 (stereo unspecified) | 35.5 µM [rising, partial curve, poor fit] | – |
| COc1ccccc1CNC(=O)c1cc2c(C)nn(Cc3ccc(F)cc3)c2s1 | 15.8 µM [falling, partial curve, poor fit] | – |
| COc1ccc(-c2cc(C(=O)NCCc3ccccc3)c3cc(C(C)C)ccc3n2)cc1 | 6.31 µM [rising, single point] | – |
| CCOc1cc(/C=C2/C(=O)ON=C2C)ccc1OCc1ccccc1 | 12.6 µM [falling, partial curve] | – |
| CCOc1ccc(S(=O)(=O)NC(C)(C)C)cc1-c1nc2c(C(C)(C)C)nn(C)c2c(=O)[nH]1 | 28.2 µM [falling, single point] | – |
| Cc1ccccc1NC(=O)N1CCc2ccccc2C1 | 14.1 µM [falling, partial curve, poor fit] | – |
| CCOC(=O)c1cc(S(=O)(=O)N2CCN(Cc3ccccc3)CC2)cn1C | 3.55 µM [rising, partial curve, poor fit] | – |
| O=C1CC(Sc2nnc(-c3ccccc3)o2)C(=O)N1c1ccccc1 (stereo unspecified) | 23.1 µM [falling, single point] | 25.9 µM [rising, partial curve, poor fit] |
| Cc1cc(C(=O)Cn2cc(C(F)(F)F)ccc2=O)c(C)n1CC1CCCO1 (stereo unspecified) | 29.1 µM [rising, single point] | – |
| O=C(c1ccccc1F)N1CCN(S(=O)(=O)c2ccc3c(c2)OCCO3)CC1 | 7.94 µM [falling, partial curve] | – |
| O=C(Cc1ccccc1[N+](=O)[O-])OCc1cccc([N+](=O)[O-])c1 | 11.2 µM [rising, partial curve, poor fit] | 11.2 µM [falling, partial curve, poor fit] |
| Cc1ccccc1OCc1nc(-c2ccc(Br)o2)no1 | 29.1 µM [rising, single point] | – |
| O=C(O)c1ccc(CSc2nc3ccccc3[nH]2)cc1 | 8.91 µM [falling, partial curve] | – |
| COc1ccccc1N1CCN(S(=O)(=O)CCNC(=O)CC2CCCCC2)CC1 | 18.4 µM [rising, partial curve, poor fit] | – |
| CCOCC(=O)Nc1cccc(OC)c1 | 0.731 µM [falling, partial curve, poor fit] | – |
| CCCCn1c(=S)[nH]c2ccccc2c1=O | 29.1 µM [rising, single point] | – |
| CCOC(=O)C1CCN(Cc2cccc(OC)c2)CC1 | 1.03 µM [rising, full curve] | – |
| O=C1C(C=NCc2ccccn2)=C(O)c2ccccc21 | 11.2 µM [falling, partial curve, poor fit] | – |

Six entries from above, set out differently:
Compound,AC50 [1],AC50 [2]
COc1cc(C2C(C#N)=C(N)OC3=C2C(=O)CCC3)cc2c1OCO2 (stereo unspecified),"35.5 µM [rising, partial curve, poor fit]",–
COc1ccc(-c2cc(C(=O)NCCc3ccccc3)c3cc(C(C)C)ccc3n2)cc1,"6.31 µM [rising, single point]",–
CCOc1cc(/C=C2/C(=O)ON=C2C)ccc1OCc1ccccc1,"12.6 µM [falling, partial curve]",–
O=C1CC(Sc2nnc(-c3ccccc3)o2)C(=O)N1c1ccccc1 (stereo unspecified),"23.1 µM [falling, single point]","25.9 µM [rising, partial curve, poor fit]"
O=C(Cc1ccccc1[N+](=O)[O-])OCc1cccc([N+](=O)[O-])c1,"11.2 µM [rising, partial curve, poor fit]","11.2 µM [falling, partial curve, poor fit]"
Cc1ccccc1OCc1nc(-c2ccc(Br)o2)no1,"29.1 µM [rising, single point]",–

(more compounds)

| Compound | AC50 [1] | AC50 [2] |
| --- | --- | --- |
| CC1=C(C(=O)OCc2ccccc2)C(c2ccc(Cl)cc2)NC(=O)N1CCCCCC(=O)O (stereo unspecified) | 23.1 µM [falling, partial curve] | – |
| COc1ccc(NC(=S)NC(=O)c2ccccc2Cl)cc1 | 15.8 µM [rising, single point] | – |
| CCN(CC)C(=O)CN1C(=O)NC2(CCc3ccccc3C2)C1=O (stereo unspecified) | 4.47 µM [rising, single point] | – |
| Cc1cccc(NCc2nc(SCC(=O)Nc3ccccc3Br)n[nH]2)c1 | 3.16 µM [rising, single point] | – |
| COc1cc(-c2nn3c(-c4ccccc4)nnc3s2)cc(OC)c1OC | 20 µM [rising, single point] | – |
| O=C(NNC(=O)c1cc(Cl)ccc1O)c1cccc(S(=O)(=O)N2CCOCC2)c1 | 5.8 µM [falling, partial curve] | – |
| CC(/C=C/C=C/c1ccccc1)=N/NC(=O)CNc1ccccc1C | 0.366 µM [rising, full curve] | – |
| O=C(Nc1cccc(S(=O)(=O)c2cccc(NC(=O)c3ccco3)c2)c1)c1ccco1 | 15.8 µM [falling, partial curve, poor fit] | – |
| CCN(CC)C(=O)CSc1nc2ncccc2[nH]1 | 17.8 µM [falling, single point] | – |
| COc1ccc2c3n(nc2c1)CCN=C3c1cc(Cl)c(N)c(Cl)c1 | 0.411 µM [falling, full curve] | – |
| COCCCNC(=S)N/N=C/c1ccc(O)cc1O | 0.562 µM [falling, full curve] | 11.2 µM [rising, partial curve, poor fit] |
| CCNC(=S)N1CCc2cc(OC)c(OC)cc2C1COc1ccc(OC)cc1 (stereo unspecified) | 31.6 µM [falling, single point] | – |
| CNC(=O)COc1ccc(-c2nn(C)c(=O)c3ccccc23)cc1 | 32.6 µM [rising, single point] | – |
| COc1ccc(/C=N/NC(=O)CSc2ccccc2)cc1OC | 16.4 µM [rising, partial curve, poor fit] | – |
| CCCOc1ccc(C(=O)C(CN2CCCC2)c2ccccc2)cc1 (stereo unspecified) | 16.4 µM [falling, partial curve, poor fit] | – |
| O=C(Nc1nnc(SCc2ccc(F)cc2)s1)c1ccccn1 | 3.16 µM [rising, partial curve, poor fit] | 3.16 µM [falling, partial curve, poor fit] |
| O=C(Nc1ccc2c(c1)OCO2)c1ccc2nc[nH]c2c1 | 16.4 µM [falling, single point] | – |
| Cc1nc2ccccc2n1CCc1nc2c3ccccc3nc(SCC(=O)Nc3ccc(C(C)C)cc3)n2n1 | 1.58 µM [rising, partial curve, poor fit] | – |
| CCOC(=O)c1cc2ccc(OC(=O)c3ccco3)cc2oc1=O | 29.1 µM [falling, single point] | – |
| CC(=O)N1N=C(c2ccc(C)cc2)CC1c1ccc2c(c1)OCO2 (stereo unspecified) | 35.5 µM [rising, single point] | – |
| O=C(NCCc1ccccc1)C1CCN(C(=O)N2CCOc3ccccc32)CC1 | 2.82 µM [rising, single point] | – |

| Compound | AC50 [1] | AC50 [2] |
| --- | --- | --- |
| Cc1cccc(C)c1N1CCN(c2ccc3nnc(C(F)(F)F)n3n2)CC1 | 16.4 µM [falling, partial curve, poor fit] | – |
| COc1ccc(CC(=O)Nc2cccc(-c3nnc(-c4ccccc4)o3)c2)cc1OC | 32.6 µM [falling, single point] | – |
| CC(C)n1ncc2c(C(=O)Nc3ccc(S(N)(=O)=O)cc3)cc(C3CC3)nc21 | 16.4 µM [rising, partial curve, poor fit] | – |
| Nc1ccc(-c2nc3cc([N+](=O)[O-])ccc3o2)cc1 | 15.8 µM [falling, partial curve, poor fit] | – |
| C#CCOCCOCCOCCNc1nc(N2CCN(C(=O)CCCCCCCCCCNC(=O)[C@H](CO)n3cc(CCCSC)nn3)CC2)nc(N2CCN(C(=O)CCCCCCCCCCNC(=O)[C@H](CCCCN)n3cc(CCO)nn3)CC2)n1 | 20.6 µM [rising, single point] | – |
| CCOC(=O)c1c(CSc2ccsc2)n(C)c2cc(Br)c(O)c(CN(C)C)c12 | 35.5 µM [falling, single point] | – |
| COCCNC(=O)c1ccccc1NC(=O)CN(c1ccc2c(c1)OCO2)S(C)(=O)=O | 0.231 µM [rising, full curve, poor fit] | – |
| Cc1cccc(-n2nc3c(c2NC(=O)C(C)C)CS(=O)(=O)C3)c1C | 0.794 µM [rising, full curve, poor fit] | – |
| Cc1cccc(C)c1-n1nnnc1SCSc1nnnn1-c1c(C)cccc1C | 6.51 µM [rising, single point] | – |
| CCCCOC(=O)Nc1ccc(C(=O)OC)cc1 | 3.98 µM [rising, single point] | – |
| Cn1c(=O)n(Cc2ccccc2F)c2ccccc21 | 11.2 µM [rising, single point] | – |
| COc1ccccc1NC(=O)CN1C(=O)COc2ccc(C)cc21 | 15.8 µM [rising, single point] | – |
| COc1cccc(NC(=O)C(=O)NCC2CCCN2S(=O)(=O)c2ccccc2)c1 (stereo unspecified) | 29.1 µM [falling, partial curve, poor fit] | – |
| O=C(O)COc1ccccc1/C=N/NC(=O)CN1CCN(Cc2ccc(Cl)cc2)CC1 | 6.31 µM [rising, single point] | – |
| Cc1ccc2nc(NC(=O)c3cccs3)sc2c1 | 2.24 µM [falling, full curve] | – |
| COc1ccc(Cn2nnc3c(C)n[nH]c(=O)c32)cc1 | 10 µM [rising, partial curve, poor fit] | – |
| O=C(Nc1nc(-c2ccco2)c(-c2ccco2)s1)c1c(F)cccc1Cl | 3.66 µM [falling, partial curve] | – |
| CC(/C=N/NC(=O)c1cc(-c2cccn2C)n[nH]1)=C\c1ccccc1 | 5.01 µM [falling, partial curve, poor fit] | – |
| O=C(C[n+]1cc(-c2ccc(F)cc2)n2c1CCC2)Nc1nc(-c2ccc(F)cc2)cs1 | 0.517 µM [falling, full curve, poor fit] | – |
| COC(=O)Cn1cnc2c1c(=O)n(C)c(=O)n2C | 0.731 µM [falling, full curve, poor fit] | – |
